Paper doi:10.1101/2023.06.15.544950
These are yes or no findings as the source states them, for the method shown.

Sequences of proteins named here, by UniProt entry; tags and fusion partners are left off. Residues count along the entry.
UniProt P70211, residues 26-1097: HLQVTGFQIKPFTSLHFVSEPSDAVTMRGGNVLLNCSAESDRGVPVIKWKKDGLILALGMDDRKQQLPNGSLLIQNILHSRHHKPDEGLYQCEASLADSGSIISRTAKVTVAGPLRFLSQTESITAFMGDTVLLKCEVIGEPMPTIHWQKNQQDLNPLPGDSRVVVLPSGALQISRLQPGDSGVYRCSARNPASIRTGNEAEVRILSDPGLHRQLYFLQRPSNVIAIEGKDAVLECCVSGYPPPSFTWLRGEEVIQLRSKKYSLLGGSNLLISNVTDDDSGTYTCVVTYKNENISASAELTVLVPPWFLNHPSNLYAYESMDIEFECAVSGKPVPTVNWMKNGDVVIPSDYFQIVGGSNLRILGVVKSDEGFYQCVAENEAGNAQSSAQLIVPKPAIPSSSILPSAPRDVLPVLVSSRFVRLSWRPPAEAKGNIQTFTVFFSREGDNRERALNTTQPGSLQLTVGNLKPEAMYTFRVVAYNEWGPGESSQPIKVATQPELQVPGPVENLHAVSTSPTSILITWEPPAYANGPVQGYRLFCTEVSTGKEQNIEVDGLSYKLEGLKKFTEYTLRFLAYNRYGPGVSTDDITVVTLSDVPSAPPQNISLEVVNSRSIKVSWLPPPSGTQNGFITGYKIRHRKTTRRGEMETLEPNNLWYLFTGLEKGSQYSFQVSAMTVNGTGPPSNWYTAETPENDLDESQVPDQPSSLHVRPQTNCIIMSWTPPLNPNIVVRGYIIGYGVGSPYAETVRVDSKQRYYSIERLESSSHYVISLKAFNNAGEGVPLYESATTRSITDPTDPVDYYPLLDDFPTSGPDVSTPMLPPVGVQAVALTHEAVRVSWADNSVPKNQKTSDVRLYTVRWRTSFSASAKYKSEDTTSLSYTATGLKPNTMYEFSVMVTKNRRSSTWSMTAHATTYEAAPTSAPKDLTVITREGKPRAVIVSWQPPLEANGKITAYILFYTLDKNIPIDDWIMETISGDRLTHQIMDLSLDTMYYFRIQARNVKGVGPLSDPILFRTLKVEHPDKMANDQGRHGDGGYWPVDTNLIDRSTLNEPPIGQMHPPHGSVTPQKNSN
UniProt P97798, residues 37-1136: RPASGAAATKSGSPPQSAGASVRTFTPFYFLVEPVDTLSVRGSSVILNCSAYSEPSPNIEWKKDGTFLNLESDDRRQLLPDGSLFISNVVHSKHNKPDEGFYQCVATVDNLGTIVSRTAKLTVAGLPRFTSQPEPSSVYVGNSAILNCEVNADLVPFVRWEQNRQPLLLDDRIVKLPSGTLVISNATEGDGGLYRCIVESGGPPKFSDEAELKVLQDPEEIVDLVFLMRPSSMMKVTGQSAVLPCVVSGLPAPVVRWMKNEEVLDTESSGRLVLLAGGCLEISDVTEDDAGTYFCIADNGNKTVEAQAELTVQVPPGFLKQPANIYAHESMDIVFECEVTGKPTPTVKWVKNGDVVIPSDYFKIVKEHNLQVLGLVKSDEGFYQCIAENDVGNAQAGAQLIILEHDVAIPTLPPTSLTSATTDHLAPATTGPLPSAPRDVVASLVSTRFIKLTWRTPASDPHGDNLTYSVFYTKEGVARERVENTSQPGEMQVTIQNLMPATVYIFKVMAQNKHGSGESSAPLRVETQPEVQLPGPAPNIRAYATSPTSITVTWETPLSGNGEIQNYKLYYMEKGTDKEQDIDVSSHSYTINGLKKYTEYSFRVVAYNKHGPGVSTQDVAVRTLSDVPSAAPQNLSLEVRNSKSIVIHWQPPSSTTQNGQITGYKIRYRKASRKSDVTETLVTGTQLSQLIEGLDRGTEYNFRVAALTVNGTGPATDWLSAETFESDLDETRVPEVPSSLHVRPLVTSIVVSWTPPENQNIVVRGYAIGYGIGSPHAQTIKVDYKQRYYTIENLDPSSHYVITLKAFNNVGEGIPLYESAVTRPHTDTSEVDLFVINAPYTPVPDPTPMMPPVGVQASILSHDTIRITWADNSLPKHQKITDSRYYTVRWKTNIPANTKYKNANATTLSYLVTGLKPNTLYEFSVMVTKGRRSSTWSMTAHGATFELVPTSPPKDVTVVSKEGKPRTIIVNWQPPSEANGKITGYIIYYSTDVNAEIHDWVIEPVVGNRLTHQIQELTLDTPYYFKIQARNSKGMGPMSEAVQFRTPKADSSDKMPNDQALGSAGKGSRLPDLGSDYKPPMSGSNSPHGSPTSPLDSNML

Target: T1, mWFIKKN2 (biotinylated, SPR ligand) (mouse) (UniProt Q7TQN3)
T1 sequence (chain, N-terminally biotinylated using Sulfo-NHS-SS-Biotin): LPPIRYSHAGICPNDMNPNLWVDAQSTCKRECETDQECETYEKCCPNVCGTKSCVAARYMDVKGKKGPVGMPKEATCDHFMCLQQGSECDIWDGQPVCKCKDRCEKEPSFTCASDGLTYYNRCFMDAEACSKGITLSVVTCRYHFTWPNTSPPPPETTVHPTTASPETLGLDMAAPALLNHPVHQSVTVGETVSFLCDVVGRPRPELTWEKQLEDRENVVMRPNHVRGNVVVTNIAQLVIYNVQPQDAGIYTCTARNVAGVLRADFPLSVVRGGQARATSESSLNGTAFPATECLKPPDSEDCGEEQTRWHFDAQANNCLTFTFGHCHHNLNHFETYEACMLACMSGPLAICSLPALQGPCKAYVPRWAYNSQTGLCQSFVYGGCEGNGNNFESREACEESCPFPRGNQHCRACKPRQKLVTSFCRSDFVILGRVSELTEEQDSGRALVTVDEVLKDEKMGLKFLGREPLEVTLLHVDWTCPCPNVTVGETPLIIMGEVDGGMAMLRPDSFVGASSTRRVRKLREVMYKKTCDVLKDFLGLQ
Assay: SPR

Substance	binding
mDCC ECD (SPR analyte) (from UniProt P70211 26-1097) (domain or fragment)	no binding
mNeo1 ECD (SPR analyte) (from UniProt P97798 37-1136) (domain or fragment)	no binding
